Laboratory results from the supplement of paper PMC3334620.
Whole data set: some 33,000 sequences, median “E-score (-0.5 to 0.5)” near -0.0014, cut for the highest 2% near 0.25. The list shows a part of the results.

Target: T1, Cad1 (UniProt P24813)
T1 sequence: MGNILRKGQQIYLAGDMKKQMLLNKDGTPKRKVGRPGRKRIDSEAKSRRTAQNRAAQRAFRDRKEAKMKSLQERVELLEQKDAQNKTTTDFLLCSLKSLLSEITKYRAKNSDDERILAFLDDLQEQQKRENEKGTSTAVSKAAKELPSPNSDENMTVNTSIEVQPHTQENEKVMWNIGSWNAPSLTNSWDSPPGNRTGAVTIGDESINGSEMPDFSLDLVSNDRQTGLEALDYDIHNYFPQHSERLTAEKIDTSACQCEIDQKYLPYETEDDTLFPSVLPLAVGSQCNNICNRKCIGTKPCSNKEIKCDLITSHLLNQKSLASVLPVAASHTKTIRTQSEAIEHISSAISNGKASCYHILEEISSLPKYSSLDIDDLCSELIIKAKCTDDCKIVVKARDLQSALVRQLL
Assay: PBM E-score (8-mer binding enrichment) (E-score (-0.5 to 0.5)); higher = stronger / more preferred TF binding
Conditions: protein concentration: 100 nM; construct: GST-full length
Method in brief: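 Masliner-normalised scans of fluorescent anti-GST signal were the basis for scoring. That signal came from GST-tagged yeast transcription factors applied at about 100-200 nM to double-stranded universal all-10-mer Agilent arrays on fresh or once-stripped slides. Each ungapped eight-base word, pooled with its reverse complement, received an E-score from the Universal PBM Analysis Suite.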

Row | Sequence | PBM E-score
1 | GTCGGTAA | -0.116
2 | GTTGCGAA | 0.119
3 | TCGGGCAA | 0.123
4 | AGTCGGCC | -0.0163
5 | GGGTTTAA | 0.0616
6 | ATATAAAC | 0.212
7 | CGCACGGC | -0.00041
8 | ATGATTAC | 0.192
9 | GAGGAATC | -0.0897
10 | AATAACCA | 0.0929
11 | AATACAAC | 0.127
12 | CTTACCAC | -0.088
13 | TAGATATA | 0.137
14 | ACATTCAG | -0.115
15 | AGCCAGTA | -0.0119
16 | AAATAAAA | -0.0112
17 | AAACGAGT | 0.106
18 | AACGATGC | -0.0697
19 | CTCAATGC | -0.134
20 | AGTTTCAA | -0.00143
21 | ATGTTGAA | 0.0648
22 | CCGTGCCC | -0.127

Reformatted as tab-separated lines: entries from further up
Row	Sequence	PBM E-score
4	AGTCGGCC	-0.0163
5	GGGTTTAA	0.0616

(next part)

Row | Sequence | PBM E-score
23 | AGCTCCTC | -0.164
24 | TCCACGAA | 0.176
25 | GACATTAA | 0.124
26 | CATGAGGA | -0.0479
27 | CCCCACGA | -0.14
28 | CGTGAAAC | 0.0381
29 | ACAATGAT | 0.0901
30 | GTGAGGAA | -0.0445
31 | ACGCAAAT | 0.00101
32 | CGACTTGC | -0.0213
33 | TACAGCTA | -0.152
34 | CTTCCGGA | 0.0325
35 | GTTCAATA | 0.148
36 | AAGATCCA | -0.089
37 | CTTTCTTA | 0.0123
38 | TATCCCCA | -0.00848
39 | GAATAGTC | 0.104
40 | AGTACGCG | 0.26
41 | GACTCGGC | -0.123
42 | GCGTAATA | 0.142
43 | GCTATACA | 0.181
44 | ACCATAGT | 0.043

Row | Sequence | PBM E-score
45 | GTGTCTTA | -0.112
46 | ATGGGAAA | -0.172
47 | CACTCCAA | 0.0548
48 | CAAAAGTC | 0.0412
49 | ATAGCTCC | -0.234
50 | GTAAACAA | 0.186
51 | CGCCATCC | -0.144
52 | AAAGAAAA | 0.149
53 | CGTCTCAA | 0.0271
54 | GTAATAGA | 0.12
55 | ATTCTAAC | -0.0187
56 | GCTTACGA | 0.258
57 | ACTACGCC | -0.0775
58 | CAATAGCA | -0.111
59 | ATAACATC | 0.16
60 | AATTTACA | 0.0636
61 | AGTATACG | 0.0264
62 | CCCCTTAC | -0.128
63 | TGCGCCAA | 0.0579
64 | CGGGGTCA | -0.12
65 | CCTGGGAC | -0.266
66 | TGGCGCCA | 0.198

Row | Sequence | PBM E-score
67 | ACTGGGTC | -0.332
68 | GGAAAGAA | -0.177
69 | ATGGTATA | 0.112
70 | CCCTCCCA | 0.00647
71 | AACAAGTA | -0.135
72 | AACCTCTG | -0.105
73 | ATCAAACC | 0.18
74 | GCATAGCC | -0.256
75 | AGACTACC | -0.0789
76 | AAGCGGTC | 0.0402
77 | ATCCAGTC | -0.0389
78 | GCGGTACA | -0.026
79 | ACGTTCAG | -0.172
80 | AGCACACT | -0.0625
81 | AACGAGTA | 0.0634
82 | CGTGGATA | 0.0699
83 | ATCAGATC | -0.12
84 | CAATTGTA | 0.202
85 | GATGGTAC | 0.0265
86 | ACAACCCC | -0.155

Looked up one by one from the list above (four):
Row | Sequence | PBM E-score
80 | AGCACACT | -0.0625
70 | CCCTCCCA | 0.00647
75 | AGACTACC | -0.0789
82 | CGTGGATA | 0.0699
